Measurements reported in patent US12510479B2, “Systems, devices, and methods for compound screening using predictive tagging” (ALLEN INSTITUTE, priority 2020, dated 2025).
For at least one compound, name, drawing or mass did not settle the structure.

Assays:
[1] = tested on: EGFP-tagged cell lines AICS-23, AICS-44, AICS-61, AICS-24 and AICS-16; experiment: Drug perturbation signature using label free prediction of DNA (FIG. 11A-11C); assay type: cell-based, human; conditions: population statistics after DNA segmentation of label free prediction
Procedure: FIG. 11A-11C show the drug perturbation signature using label free prediction, as described herein.
These signatures were distinct from those of other drug perturbations such as BIX, Brefeldin, H89, and Monensin. The identification of these perturbation signatures were performed in the following EGFP-tagged cell lines; AICS-23 (tight junction), AICS-44 (Golgi), AICS-61 (Histone), AICS-24 (non-muscle Myosin) and AICS-16 (beta Actin) without additional introduction of DNA signals.

hiPSCs [2] = experiment: Label free prediction of nuclear size from brightfield images (FIG. 6C-6D); assay type: cell-based, human; conditions: 0.1 μM, 24 hours, vs DMSO control
[3] = tested on: human induced pluripotent stem cell (hiPSC); experiment: Effect of five drugs on DNA volume in hiPSCs (FIG. 5); assay type: cell-based; conditions: relative to control (vehicle), five drugs tested
hiPSCs [4] = experiment: Fluorescence imaging of hiPSCs labeled with NucBlue Live (DNA) (FIG. 6E-6F); assay type: cell-based, human; conditions: 0.1 μM, 24 hours, vs DMSO control
[5] = known effect; cited from earlier work
AICS-16 (beta Actin) = experiment: Predicted, label free imaging of drug effects (FIG. 10F, 10H); assay type: cell-based, human; conditions: AICS-16 cells; predicted label free images
Text: FIGS. 10A-10H show the predicted, label free imaging effects of different drugs on different, differentiated, hiPSC cell lines. […] Brefeldin inhibits protein transport from the endoplasmic reticulum to the golgi complex indirectly by preventing association of COP-I coat to the Golgi membrane.

CO[C@H]1C[C@@H]2CC[C@@H](C)[C@@](O)(O2)C(=O)C(=O)N2CCCC[C@H]2C(=O)O[C@H]([C@H](C)C[C@@H]2CC[C@@H](O)[C@H](OC)C2)CC(=O)[C@H](C)/C=C(\C)[C@@H](O)[C@@H](OC)C(=O)[C@H](C)C[C@H](C)/C=C/C=C/C=C/1C [Rapamycin]
nuclear density (perturbation signature in predicted images) [1]: higher nuclear density | nuclear volume (perturbation signature in predicted images) [1]: smaller nuclear volume | nuclear size in predicted images (hiPSCs [2]): smaller than the control cells | DNA volume [3]: largest reduction in DNA volume | DNA volume / nuclear size (nuclear volume), fluorescence image (hiPSCs [4]): reduction in DNA volume, and thus reduced nuclear size | time to induce G1/S cell cycle arrest [5]: ≤ 24 h | predicted effect on DNA, nuclear size, or microtubule formation (AICS-16 (beta Actin)): reduces DNA volume and thus nuclear size
